The series relates to 3,4-DGE-derived AGEs in the peritoneum. The series is described as follows: accumulation of 3,4-DGE-derived AGEs in peritoneum of model rat for peritoneal dialysis. To be noted: intraperitoneal, twice/day, 30 days. The series is classed as in vivo.

Each structure is given as a SMILES string.

On to `O=CC(=O)C=CC(O)CO` (centres unmarked) [3,4-DGE, 3,4-dideoxyglucosone-3-ene], for which the “color development in parietal peritoneum (anti-3,4-DGE-AGE staining)” value is given as “color development was observed” (2 μM 3,4-DGE-containing dialysate) and “stronger color development was observed” (58 μM 3,4-DGE-containing dialysate).
